No constants are given. Whether binding was seen depends on the method and setting. In cells and extracts the contact can be indirect. These calls come from enrichment with a bait or labelling near it, and not all partners need be listed.
B1: Farp1 (protein, UniProt F1LYQ8 1-1049)
chain: MGEIEQKPTPASRLGAPENSGISTLERGQKPPPTPSGKLMTVKIQMLDDTQEAFEVPQRAPGKVLFDAVCNHLNLVEGDYFGLEFPDHRKIVVWLDLLKPIVKQIRRPKHVLVKFVVKFFPPDHTQLQEELTRYLFALQVKQDLAQGRLTCNDTSAALLISHIVQSEIGDFDEALDREHLAKNKYVPQQDALEDKIVEFHHSHIGQTPAESDFQLLEVARRLEMYGIRLHPAKDREGTKINLAVANTGILVFQGFTKINAFNWAKVRKLSFKRKRFLIKLRPDVNSSYQDTLEFLMAGRDFCKSFWKICVEHHAFFRLFEEPKPKPKPVLFSRGSSFRFSGRTQKQVLDYVKEGGHKKVQFERKHSKIHSTRSLVSQPTAPNSEVPKQSPQSASLTFGEGTESPSAQSCQQAKETKVCTLEPGPRQSPALSKSPSGSKAADGTAAAAPPEEEDEEEGGKDGIRPSNPQPPQPSTGSLTGSPHLSELSINSQGGAAPANVTLSPNLSPDNKQASPLISPLLNDQACPRTDDEEEGRRKRFPTDKAYYIAKEVSTTERTYLKDLEVIASWFQSTVSKEDSMPEALKSLIFPNFEPLHKFHTNFLKEIEQRLALWEGRSNAHIRGDYQRIGDVMLKNIQGMKHLAAHLWKHSEALEALETSIKGSRRLEHFCRDFELQKVCYLPLNTFLLRPLHRLMHYKQVLERLCKHHPPNHADFRDCRAALAEITEMVAQLHGTMIKMENFQKLHELKKDLIGIDNLVIPGREFIRLGSLSKLSGKGLQQRMFFLFNDVLLYTSRGLTASNQFKVHGQLPLYGMTIEESEEEWGVPHCLTLRGQRQSIIVAASSRSEMEKWLEDIQMAIDLAEKSNGPTPELLASSPPDNKSPDEATAADQESEDDLSASRTSLERQAPHRGNTMVHVCWHRSTSVSMVDFSIAVENQLSGNLLRKFKNSNGWQKLWVVFTNFCLFFYKSHQDSHPLASLPLLGYSLTIPSESENIHKDYVFKLHFKSHVYYFRAESEYTFERWMEVIRSATSSASRAHSLSHKESHLY
B2: Sfxn3 (protein, UniProt Q9JHY2 1-321)
chain: MGDLPLNINIQEPRWDQSTFLGRARHFFTVTDPRNLLLSGKQLEASRNIVQNYRAGVVTPGLTEDQLWRAKYVYDSAFHPDTGEKVVLIGRMSAQVPMNMTITGCMLTFYRKTPTMVFWQWVNQSFNAIVNYSNRSGDAPITVQQLGTAYVSATTGAVATALGLKSLTKHLPPLVGRFVPFAAVAAANCINIPLMRQRELQVGIPVTDEAGQRLGHSVTAAKQGIFQVVVSRIGMAIPAMAIPPVIMNTLEKKDFLKRRPWLGAPLQVGLVGFCLVFATPLCCALFPQRSSIHVTRLEPELRAQIQAQKPSIDVVYYNKGL
B3: Tfam (protein, UniProt Q91ZW1 43-244)
chain: SSLGNYPKKPMSSYLRFSTEQLPKFKAKHPDAKVSELIRKIAAMWRELPEAEKKVYEADFKAEWKVYKEAVSKYKEQLTPSQLMGLEKEARQKRLKKKAQIKRRELILLGKPKRPRSAYNIYVSESFQEAKDESAQGKLKLVNQAWKNLSHDEKQAYIQLAKDDRIRYDNEMKSWEEQMAEVGRSDLIRRSVKRPPGDISEN
B4: Tecr (protein, UniProt Q64232 1-308)
chain: MKHYEVEIRDAKTREKLCFLDKVEPQATISEIKTLFTKTHPQWYPARQSLRLDPKGKSLKDEDVLQKLPVGTTATLYFRDLGAQISWVTVFLTEYAGPLFIYLLFYFRVPFIYGRKYDFTSSRHTVVHLACMCHSFHYIKRLLETLFVHRFSHGTMPLRNIFKNCTYYWGFAAWMAYYINHPLYTPPTYGVQQVKLALAIFVICQLGNFSIHMALRDLRPAGSKTRKIPYPTKNPFTWLFLLVSCPNYTYEVGSWIGFAIMTQCVPVALFSLVGFTQMTIWAKGKHRSYLKEFRDYPPLRMPIIPFLL
B5: Mrps15 (protein, UniProt Q5XI37 58-257)
chain: VQAKQDDEPASSTFIKEYKNIIPNMEKVDDVVKRILSLEMASRKEKLKIKREQLMNKIAENPEDYRTLEARIVALTVKIRNYEEHMQKHRKDKVHKRHLLMSIDQRKKFLRLLRQTNYDVFEKTCKELGVEYALPPLHFQRVHRRFLAKKALCIQVFQEVQKLKKQRMALKAAAAAAKKEKRERVPENPSNALPEKTKEN
B6: Atp5f1 (protein, UniProt P19511 43-256)
chain: PLPPLPEYGGKVRLGLIPEEFFQFLYPKTGVTGPYVLGTGLSLYFLSKEIYVITPETFSTISVVGLIVYVIKKYGASIGEFIDKLNEEKIAQLEEIKQSSMKQIQDAINREKAQQALVQKRHYLFDVQRNNIALALEVTYRERLHKAYKEVKNRLDYHISVQDMMRRKEGEHMINWVEKHVIQSISAQQEKETIAKCIGDLKMLAKKAQAQPIM
B7: Diras2 (protein, UniProt A0A8I5ZKR8 1-199)
chain: MPEQSNDYRVAVFGAGGVGKSSLVLRFVKGTFRESYIPTVEDTYRQVISCDKSICTLQITDTTGSHQFPAMQRLSISKGHAFILVYSITSRQSLEELKPIYEQICEIKGDVESIPIMLVGNKCDESPNREVQSSEAEALARTWKCAFMETSAKLNHNVKELFQELLNLEKRRTVSLQIDGKKSKQQKRKEKLKGKCVVM
B8: Stmn1 (protein, UniProt P13668 1-149)
chain: MASSDIQVKELEKRASGQAFELILSPRSKESVPEFPLSPPKKKDLSLEEIQKKLEAAEERRKSHEAEVLKQLAEKREHEKEVLQKAIEENNNFSKMAEEKLTHKMEANKENREAQMAAKLERLREKDKHVEEVRKNKESKDPADETEAD
B9: Slc25a18 (protein, UniProt Q505J6 1-320)
chain: MIACRMSSQDLSITAKLINGGIAGLVGVTCVFPIDLAKTRLQNQQGKDVYKGMTDCLVKTARAEGFLGMYRGAAVNLTLVTPEKAIKLAANDFLRQLLMQDGTQRNLKMEMLAGCGAGICQVVITCPMEMLKIQLQDAGRLAVCQQASASATPTSRPYSTGSTSTHRRPSATLIAWELLRTQGLSGLYRGLGATLLRDIPFSIIYFPLFANLNQLGVSELTGKASFTHSFVAGCAAGSVSAVAVTPLDVLKTRIQTLKKGLGEDTYRGVTDCARKLWTQEGAAAFMKGAGCRALVIAPLFGIAQGVYFIGIGERILKCFE
B10: Pcsk1n (protein, UniProt Q9QXU9 34-260)
chain: ARPVKEPRSLSAASAPLAETSTPLRLRRAVPRGEAAGAVQELARALAHLLEAERQERARAEAQEAEDQQARVLAQLLRAWGSPRASDPPLAPDDDPDAPAAQLARALLRARLDPAALAAQLVPAPAPAAALRPRPPVYDDGPTGPDVEDAADETPDVDPELLRYLLGRILTGSSEPEAAPAPRRLRRAVDQDLGPEVPPENVLGALLRVKRLENSSPQAPARRLLPP
B11: Mpc2 (protein, UniProt P38718 1-127)
chain: MAAAGARGLRATYHRLMDKVELLLPKKLRPLYNHPAGPRTVFFWAPIMKWGLVCAGLADMARPAEKLSTAQSTVLMATGFIWSRYSLVIIPKNWSLFAVNFFVGSAGASQLFRIWKYNQELKSKGIQ
B12: Dhrs7b (protein, UniProt Q5RJY4 1-325)
chain: MISPSSRKGMLKERAMDLVTQTTILPLLFGCLGIFSLFRLLQRTRSKAYLRNAVVVVTGATSGLGKECARVFHAAGAKVVLCGRNVKALEEFTRELADSSSSQGQTHQPCVVTFDLADPGAIAPAAAEILQCFGYVDILINNAGISYRGAISDTIVDVDRKVMEINYFGPVALTKALLPSMVERKRGHIVAISSIQGKISIPFRSAYAASKHATQAFFDCLRAEMKDSDIEVTVISPGYIHTNLSVNAVTADGSRYGALDKNTAQGRSAVEVAQDIFDAVGKKKKDVLLTDFLPTMAVYIRTLAPRLFFRIMASRARKERKSKNS
B13: Atp5i (protein, UniProt P29419 1-71)
chain: MVPPVQVSPLIKFGRYSALILGMAYGAKRYSYLKPRAEEERRIAAEEKKRLDELKRIERELAEAEDVSIFK
B14: Sfxn1 (protein, UniProt Q63965 1-322)
chain: MSGEVPPNINIKEPRWDQSTFIGRASHFFTVTDPKNILLTNEQLENARKVVHDYRQGIVPAGLTENELWRAKYAYDSAFHPDTGEKMTLIGRMSAQVPMNMTITGCMMTFYRTTPAVLFWQWINQSFNAVVNYTNRSGDAPLTVNELGTAYVSATTGAVATALGLNALTKHVSPLIGRFVPFAAVAAANCINIPLMRQRELKVGIPVTDENGTRLGESTNAAKQAITQVVISRILMAAPGMAIPPFIMNTLEKKAFLKRFPWMSAPIQVTLVGFCLVFATPLCCALFPQKSSMSVTSLEDDLQASIQKSHPELRRVYFNKGL
B15: Rab33a (protein, UniProt D3ZCU8 1-237)
chain: MAQPILGHGSLQPASAAGLASLELDSSMDQYVQIRIFKIIVIGDSNVGKTCLTFRFCGGTFPDKTEATIGVDFREKTVEIEGEKIKVQVWDTAGQERFRKSMVEHYYRNVHAVVFVYDVTKMTSFTNLKMWIQECNGHAVPPLVPKVLVGNKCDLREQIQVPSNLALKFADAHNMLLFETSAKDPKESQNVESIFMCLACRLKAQKSLLYRDAERQQGKVQTLEFPQEANSKTSCPC
B16: Acp1 (protein, UniProt P41498 1-158)
chain: MAEVGSKSVLFVCLGNICRSPIAEAVFRKLVTDENVSDNWRIDSAATSTYEVGNPPDYRGQNCMKKHGIHMQHIARQITREDFATFDYILCMDESNLRDLNRKSNQVKNCKAKIELLGSYDPQKQLIIEDPYYGNDSDFEVVYQQCLRCCKAFLEKTH
B17: Ptpmt1 (protein, UniProt P0C089 32-193)
chain: PAHRDWYHRIDHTVLLGALPLRSMTRRLVLDENVRGVITMNEEYETRFLCNTSKEWKNVGVEQLRLSTVDMTGVPTLANLHRGVQFALKYQSLGQCVYVHCKAGRSRSATMVAAYLIQVHNWSPEEAIEAIAKIRSHISIRPSQLEILKEFHKEIAARAAKN
B18: Rab5a (protein, UniProt M0RC99 1-215)
chain: MANRGATRPNGPNTGNKICQFKLVLLGESAVGKSSLVLRFVKGQFHEFQESTIGAAFLTQTVCLDDTTVKFEIWDTAGQERYHSLAPMYYRGAQAAIVVYDITNEESFSRAKNWVKELQRQASPNIVIALSGNKADLANKRAVDFQEAQSYADDNSLLFMETSAKTPMNVNEIFMAIAKKLPKNEPQNPGANSARGRGVDLTEPAQPARSQCCSN
B19: Vdac2 (protein, UniProt P81155 1-295)
chain: MAECCVPVCQRPICIPPPYADLGKAARDIFNKGFGFGLVKLDVKTKSCSGVEFSTSGSSNTDTGKVSGTLETKYKWCEYGLTFTEKWNTDNTLGTEIAIEDQICQGLKLTFDTTFSPNTGKKSGKIKSAYKRECINLGCDVDFDFAGPAIHGSAVFGYEGWLAGYQMTFDSAKSKLTRSNFAVGYRTGDFQLHTNVNNGTEFGGSIYQKVCEDFDTSVNLAWTSGTNCTRFGIAAKYQLDPTASISAKVNNSSLIGVGYTQTLRPGVKLTLSALVDGKSFNAGGHKLGLALELEA

Amino acid sequences for entries named in this document (tags omitted).
UniProt Q9NZV8: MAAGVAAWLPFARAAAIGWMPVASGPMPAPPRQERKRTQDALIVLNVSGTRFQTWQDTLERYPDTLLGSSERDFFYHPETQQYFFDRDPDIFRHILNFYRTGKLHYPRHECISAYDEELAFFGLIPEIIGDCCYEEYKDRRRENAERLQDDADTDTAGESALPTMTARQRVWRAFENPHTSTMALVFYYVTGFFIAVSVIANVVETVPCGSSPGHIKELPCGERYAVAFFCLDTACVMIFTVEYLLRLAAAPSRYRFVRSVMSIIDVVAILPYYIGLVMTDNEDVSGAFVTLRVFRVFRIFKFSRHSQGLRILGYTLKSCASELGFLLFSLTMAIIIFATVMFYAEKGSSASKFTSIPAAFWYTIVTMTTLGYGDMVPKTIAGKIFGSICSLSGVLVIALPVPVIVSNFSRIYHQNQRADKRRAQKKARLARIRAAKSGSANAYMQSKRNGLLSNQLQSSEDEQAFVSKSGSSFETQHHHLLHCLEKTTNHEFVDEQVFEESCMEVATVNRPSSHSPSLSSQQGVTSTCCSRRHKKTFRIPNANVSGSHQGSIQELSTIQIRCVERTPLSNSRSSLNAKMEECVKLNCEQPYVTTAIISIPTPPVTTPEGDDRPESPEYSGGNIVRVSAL

Molecular target: TAP-Kv4.2 (human) (UniProt Q9NZV8)
Experiment: affinity purification with mass spectrometry; TAP-Kv4.2 expressed by lentivirus in rat hippocampal neurons, harvested at DIV14; strong lysis buffer (1% Triton X-100, 0.5% deoxycholate in PBS, pH 7.4); streptavidin resin, then calmodulin resin; gel cut into high and low molecular weight fragments; no MS of the control sample

Binder	binding
B1	binds
B2	binds
B3	binds
B4	binds
B5	binds
B6	binds
B7	binds
B8	binds
B9	binds
B10	binds
B11	binds
B12	binds
B13	binds
B14	binds
B15	binds
B16	binds
B17	binds
B18	binds
B19	binds
